Taken from: PubChem BioAssay AID504791 (Drosophila RNAi Screening Center, 2011)
The screen tested about 23,000 reagents; this is a random part of those with a known target gene and a result. Over the whole deposit, 199 (0.86%) are marked active. 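Plate-scaled ratios behind the calls are not deposited; printed light signals are raw; many rows marked increased or decreased are still called inactive.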

Assay: 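Genes whose knock-down strengthens or weakens small-RNA reporter silencing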 (primary screen)
Cells: Drosophila S2-derived reporter cells
Reagent: long dsRNA against Drosophila genes, about 150-250 ng dsRNA per well (siRNA assay); about 80-120 ng (miRNA assay)
Duration: about 5 days (siRNA assay); about 4 days (miRNA assay)
Treatment: copper sulfate induction of reporters: 25 µM (siRNA assay); 200 mM stated (miRNA assay), 1-2 days before reading
Read-out: 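Per-well ratio of Renilla over firefly light, expressed relative to that plate's average ratio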
Reading the numbers: siRNA reporter hit score: higher = 3 marks a strong hit with raised ratio; -3 a strong hit with lowered ratio
Active means: 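First-pass picks had plate-scaled ratios over 1.5 for the siRNA assay, over 1.6 for the miRNA assay, or under 0.6; two distinct dsRNAs had to score alike on retest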

| Gene | amplicon | siRNA reporter hit score | stable siRNA reporter change | stable assay Renilla, run 1 (luminescence) | stable assay firefly, run 1 (luminescence) | Outcome |
| --- | --- | --- | --- | --- | --- | --- |
| Tbc1d15-17 (GeneID 33184) | DRSC00313 | – | – | 13653 | 1.59e5 | inactive |
| barr (GeneID 35287) | DRSC03488 | – | reporter ratio raised past the hit cutoff | 9097 | 3.26e5 | active |
| CG11417 (GeneID 31083) | DRSC18581 | – | – | 8739 | 5.69e5 | inactive |
| CG6178 (GeneID 42867) | DRSC15984 | – | – | 9551 | 2.93e5 | inactive |
| Bub1 (GeneID 33758) | DRSC02357 | – | – | 10685 | 5.43e5 | inactive |
| Bub1 (GeneID 33758) | DRSC23158 | – | – | 3392 | 2.58e5 | inactive |
| CG13300 (GeneID 38730) | DRSC09974 | – | – | 5326 | 2.83e5 | inactive |
| CG12983 (GeneID 40319) | DRSC11692 | – | – | 7407 | 3.83e5 | inactive |
| MED30 (GeneID 38078) | DRSC08516 | – | – | 8860 | 3.17e5 | inactive |
| MED30 (GeneID 38078) | DRSC23135 | – | – | 6715 | 4.16e5 | inactive |
| CG33775 (GeneID 3772054) | DRSC05353 | – | – | 5818 | 3.56e5 | inactive |

Records listed so far with an active call (1):
| Gene | amplicon | siRNA reporter hit score | stable siRNA reporter change | stable assay Renilla, run 1 (luminescence) | stable assay firefly, run 1 (luminescence) | Outcome |
| --- | --- | --- | --- | --- | --- | --- |
| barr (GeneID 35287) | DRSC03488 | – | reporter ratio raised past the hit cutoff | 9097 | 3.26e5 | active |

Further results follow:
| Gene | amplicon | siRNA reporter hit score | stable siRNA reporter change | stable assay Renilla, run 1 (luminescence) | stable assay firefly, run 1 (luminescence) | Outcome |
| --- | --- | --- | --- | --- | --- | --- |
| CG11756 (GeneID 32074) | DRSC19424 | 3 | – | 5487 | 4.27e5 | inactive |
| CG11123 (GeneID 35664) | DRSC06040 | – | – | 5843 | 3.73e5 | inactive |
| Bcs1 (GeneID 34360) | DRSC02789 | – | – | 7335 | 3.67e5 | inactive |
| Ugt302E1 (GeneID 53508) | DRSC15635 | – | – | 6458 | 3.79e5 | inactive |
| Acsx1L (GeneID 42351) | DRSC16014 | – | – | 7398 | 3.24e5 | inactive |
| eIF4E4 (GeneID 38743) | DRSC09701 | – | – | 7990 | 5.41e5 | inactive |
| Dlip2 (GeneID 40579) | DRSC12346 | – | – | 7823 | 4.42e5 | inactive |
| CG31191 (GeneID 42477) | DRSC13455 | – | – | 4915 | 5.06e5 | inactive |
| CG31191 (GeneID 42477) | DRSC15214 | – | – | 7692 | 3.15e5 | inactive |
| CG31191 (GeneID 42477) | DRSC15215 | – | – | 5606 | 2.55e5 | inactive |
| nuf (GeneID 39572) | DRSC11379 | – | – | 9046 | 3.65e5 | inactive |
| nuf (GeneID 39572) | DRSC22524 | – | – | 3779 | 2.95e5 | inactive |
| nuf (GeneID 39572) | DRSC23276 | – | – | 5219 | 3.38e5 | inactive |
| CG9427 (GeneID 41164) | DRSC16490 | – | – | 7913 | 3.99e5 | inactive |
| ftz (GeneID 40834) | DRSC12626 | – | – | 7314 | 4.79e5 | inactive |
| CG32428 (GeneID 50105) | DRSC11697 | – | – | 7972 | 2.93e5 | inactive |
| CG32428 (GeneID 50105) | DRSC11768 | – | – | 7072 | 4.15e5 | inactive |
| CrzR (GeneID 39409) | DRSC09781 | – | – | 6411 | 3.87e5 | inactive |
| CrzR (GeneID 39409) | DRSC09782 | – | – | 6498 | 4.12e5 | inactive |
| Alp9 (GeneID 38633) | DRSC10486 | – | – | 6826 | 4.56e5 | inactive |
| nbs (GeneID 44259) | DRSC11373 | – | – | 5731 | 3.63e5 | inactive |
| CG44251 (GeneID 36429) | DRSC06856 | – | – | 6534 | 4.25e5 | inactive |
| Dhrs4 (GeneID 38598) | DRSC09773 | – | – | 8513 | 3.70e5 | inactive |
